T1: FLAG-BirA*-tagged Dyrk2, wild type (human) (UniProt Q92630)
T1 sequence: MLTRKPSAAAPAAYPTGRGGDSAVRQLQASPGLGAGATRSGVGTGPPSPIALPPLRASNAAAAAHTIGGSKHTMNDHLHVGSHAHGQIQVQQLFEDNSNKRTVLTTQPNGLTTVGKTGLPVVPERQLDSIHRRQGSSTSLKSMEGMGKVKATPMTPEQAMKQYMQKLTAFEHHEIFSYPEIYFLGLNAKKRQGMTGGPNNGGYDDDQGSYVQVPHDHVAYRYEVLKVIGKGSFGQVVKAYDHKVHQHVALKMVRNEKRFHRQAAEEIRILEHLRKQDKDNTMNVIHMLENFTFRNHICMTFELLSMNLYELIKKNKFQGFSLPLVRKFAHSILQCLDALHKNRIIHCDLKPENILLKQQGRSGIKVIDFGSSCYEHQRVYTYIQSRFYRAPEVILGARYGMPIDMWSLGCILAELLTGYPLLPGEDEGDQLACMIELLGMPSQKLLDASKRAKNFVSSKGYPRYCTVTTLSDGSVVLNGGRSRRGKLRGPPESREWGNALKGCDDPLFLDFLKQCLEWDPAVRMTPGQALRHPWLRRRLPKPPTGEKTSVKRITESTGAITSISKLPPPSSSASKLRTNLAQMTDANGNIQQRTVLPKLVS

B1: NUP107 (protein, UniProt P57740 1-925)
chain: MDRSGFGEISSPVIREAEVTRTARKQSAQKRVLLQASQDENFGNTTPRNQVIPRTPSSFRQPFTPTSRSLLRQPDISCILGTGGKSPRLTQSSGFFGNLSMVTNLDDSNWAAAFSSQRSGLFTNTEPHSITEDVTISAVMLREDDPGEAASMSMFSDFLQSFLKHSSSTVFDLVEEYENICGSQVNILSKIVSRATPGLQKFSKTASMLWLLQQEMVTWRLLASLYRDRIQSALEEESVFAVTAVNASEKTVVEALFQRDSLVRQSQLVVDWLESIAKDEIGEFSDNIEFYAKSVYWENTLHTLKQRQLTSYVGSVRPLVTELDPDAPIRQKMPLDDLDREDEVRLLKYLFTLIRAGMTEEAQRLCKRCGQAWRAATLEGWKLYHDPNVNGGTELEPVEGNPYRRIWKISCWRMAEDELFNRYERAIYAALSGNLKQLLPVCDTWEDTVWAYFRVMVDSLVEQEIQTSVATLDETEELPREYLGANWTLEKVFEELQATDKKRVLEENQEHYHIVQKFLILGDIDGLMDEFSKWLSKSRNNLPGHLLRFMTHLILFFRTLGLQTKEEVSIEVLKTYIQLLIREKHTNLIAFYTCHLPQDLAVAQYALFLESVTEFEQRHHCLELAKEADLDVATITKTVVENIRKKDNGEFSHHDLAPALDTGTTEEDRLKIDVIDWLVFDPAQRAEALKQGNAIMRKFLASKKHEAAKEVFVKIPQDSIAEIYNQCEEQGMESPLPAEDDNAIREHLCIRAYLEAHETFNEWFKHMNSVPQKPALIPQPTFTEKVAHEHKEKKYEMDFGIWKGHLDALTADVKEKMYNVLLFVDGGWMVDVREDAKEDHERTHQMVLLRKLCLPMLCFLLHTILHSTGQYQECLQLADMVSSERHKLYLVFSKEELRKLLQKLRESSLMLLDQGLDPLGYEIQL
B2: NUP160 (protein, UniProt Q12769 1-1436)
chain: MLHLSAAPPAPPPEVTATARPCLCSVGRRGDGGKMAAAGALERSFVELSGAERERPRHFREFTVCSIGTANAVAGAVKYSESAGGFYYVESGKLFSVTRNRFIHWKTSGDTLELMEESLDINLLNNAIRLKFQNCSVLPGGVYVSETQNRVIILMLTNQTVHRLLLPHPSRMYRSELVVDSQMQSIFTDIGKVDFTDPCNYQLIPAVPGISPNSTASTAWLSSDGEALFALPCASGGIFVLKLPPYDIPGMVSVVELKQSSVMQRLLTGWMPTAIRGDQSPSDRPLSLAVHCVEHDAFIFALCQDHKLRMWSYKEQMCLMVADMLEYVPVKKDLRLTAGTGHKLRLAYSPTMGLYLGIYMHAPKRGQFCIFQLVSTESNRYSLDHISSLFTSQETLIDFALTSTDIWALWHDAENQTVVKYINFEHNVAGQWNPVFMQPLPEEEIVIRDDQDPREMYLQSLFTPGQFTNEALCKALQIFCRGTERNLDLSWSELKKEVTLAVENELQGSVTEYEFSQEEFRNLQQEFWCKFYACCLQYQEALSHPLALHLNPHTNMVCLLKKGYLSFLIPSSLVDHLYLLPYENLLTEDETTISDDVDIARDVICLIKCLRLIEESVTVDMSVIMEMSCYNLQSPEKAAEQILEDMITIDVENVMEDICSKLQEIRNPIHAIGLLIREMDYETEVEMEKGFNPAQPLNIRMNLTQLYGSNTAGYIVCRGVHKIASTRFLICRDLLILQQLLMRLGDAVIWGTGQLFQAQQDLLHRTAPLLLSYYLIKWGSECLATDVPLDTLESNLQHLSVLELTDSGALMANRFVSSPQTIVELFFQEVARKHIISHLFSQPKAPLSQTGLNWPEMITAITSYLLQLLWPSNPGCLFLECLMGNCQYVQLQDYIQLLHPWCQVNVGSCRFMLGRCYLVTGEGQKALECFCQAASEVGKEEFLDRLIRSEDGEIVSTPRLQYYDKVLRLLDVIGLPELVIQLATSAITEAGDDWKSQATLRTCIFKHHLDLGHNSQAYEALTQIPDSSRQLDCLRQLVVVLCERSQLQDLVEFPYVNLHNEVVGIIESRARAVDLMTHNYYELLYAFHIYRHNYRKAGTVMFEYGMRLGREVRTLRGLEKQGNCYLAALNCLRLIRPEYAWIVQPVSGAVYDRPGASPKRNHDGECTAAPTNRQIEILELEDLEKECSLARIRLTLAQHDPSAVAVAGSSSAEEMVTLLVQAGLFDTAISLCQTFKLPLTPVFEGLAFKCIKLQFGGEAAQAEAWAWLAANQLSSVITTKESSATDEAWRLLSTYLERYKVQNNLYHHCVINKLLSHGVPLPNWLINSYKKVDAAELLRLYLNYDLLEEAVDLVSEYVDAVLGKGHQYFGIEFPLSATAPMVWLPYSSIDQLLQALGENSANSHNIALSQKILDKLEDYQQKVDKATRDLLYRRTL
B3: NUP96 (protein, UniProt P52948 881-1817)
chain: SKYGLQDSDEEEEEHPSKTSTKKLKTAPLPPASQTTPLQMALNGKPAPPPQSQSPEVEQLGRVVELDSDMVDITQEPVLDTMLEESMPEDQEPVSASTHIASSLGINPHVLQIMKASLLTDEEDVDMALDQRFSRLPSKADTSQEICSPRLPISASHSSKTRSLVGGLLQSKFTSGAFLSPSVSVQECRTPRAASLMNIPSTSSWSVPPPLTSVFTMPSPAPEVPLKTVGTRRQLGLVPREKSVTYGKGKLLMDMALFMGRSFRVGWGPNWTLANSGEQLNGSHELENHQIADSMEFGFLPNPVAVKPLTESPFKVHLEKLSLRQRKPDEDMKLYQTPLELKLKHSTVHVDELCPLIVPNLGVAVIHDYADWVKEASGDLPEAQIVKHWSLTWTLCEALWGHLKELDSQLNEPREYIQILERRRAFSRWLSCTATPQIEEEVSLTQKNSPVEAVFSYLTGKRISEACSLAQQSGDHRLALLLSQFVGSQSVRELLTMQLVDWHQLQADSFIQDERLRIFALLAGKPVWQLSEKKQINVCSQLDWKRSLAIHLWYLLPPTASISRALSMYEEAFQNTSDSDRYACSPLPSYLEGSGCVIAEEQNSQTPLRDVCFHLLKLYSDRHYDLNQLLEPRSITADPLDYRLSWHLWEVLRALNYTHLSAQCEGVLQASYAGQLESEGLWEWAIFVLLHIDNSGIREKAVRELLTRHCQLLETPESWAKETFLTQKLRVPAKWIHEAKAVRAHMESDKHLEALCLFKAEHWNRCHKLIIRHLASDAIINENYDYLKGFLEDLAPPERSSLIQDWETSGLVYLDYIRVIEMLRHIQQVDCSGNDLEQLHIKVTSLCSRIEQIQCYSAKDRLAQSDMAKRVANLLRVVLSLHHPPDRTSDSTPDPQRVPLRLLAPHIGRLPMPEDYAMDELRSLTQSYLRELAVGSL
B4: NUP133 (protein, UniProt Q8WUM0 1-1156)
chain: MFPAAPSPRTPGTGSRRGPLAGLGPGSTPRTASRKGLPLGSAVSSPVLFSPVGRRSSLSSRGTPTRMFPHHSITESVNYDVKTFGSSLPVKVMEALTLAEVDDQLTINIDEGGWACLVCKEKLIIWKIALSPITKLSVCKELQLPPSDFHWSADLVALSYSSPSGEAHSTQAVAVMVATREGSIRYWPSLAGEDTYTEAFVDSGGDKTYSFLTAVQGGSFILSSSGSQLIRLIPESSGKIHQHILPQGQGMLSGIGRKVSSLFGILSPSSDLTLSSVLWDRERSSFYSLTSSNISKWELDDSSEKHAYSWDINRALKENITDAIWGSESNYEAIKEGVNIRYLDLKQNCDGLVILAAAWHSADNPCLIYYSLITIEDNGCQMSDAVTVEVTQYNPPFQSEDLILCQLTVPNFSNQTAYLYNESAVYVCSTGTGKFSLPQEKIVFNAQGDSVLGAGACGGVPIIFSRNSGLVSITSRENVSILAEDLEGSLASSVAGPNSESMIFETTTKNETIAQEDKIKLLKAAFLQYCRKDLGHAQMVVDELFSSHSDLDSDSELDRAVTQISVDLMDDYPASDPRWAESVPEEAPGFSNTSLIILHQLEDKMKAHSFLMDFIHQVGLFGRLGSFPVRGTPMATRLLLCEHAEKLSAAIVLKNHHSRLSDLVNTAILIALNKREYEIPSNLTPADVFFREVSQVDTICECLLEHEEQVLRDAPMDSIEWAEVVINVNNILKDMLQAASHYRQNRNSLYRREESLEKEPEYVPWTATSGPGGIRTVIIRQHEIVLKVAYPQADSNLRNIVTEQLVALIDCFLDGYVSQLKSVDKSSNRERYDNLEMEYLQKRSDLLSPLLSLGQYLWAASLAEKYCDFDILVQMCEQTDNQSRLQRYMTQFADQNFSDFLFRWYLEKGKRGKLLSQPISQHGQLANFLQAHEHLSWLHEINSQELEKAHATLLGLANMETRYFAKKKTLLGLSKLAALASDFSEDMLQEKIEEMAEQERFLLHQETLPEQLLAEKQLNLSAMPVLTAPQLIGLYICEENRRANEYDFKKALDLLEYIDEEEDININDLKLEILCKALQRDNWSSSDGKDDPIEVSKDSIFVKILQKLLKDGIQLSEYLPEVKDLLQADQLGSLKSNPYFEFVLKANYEYYVQGQI

These are yes or no findings as the source states them, for the method shown. Binding seen in cells or lysates may run through a third protein. Here binding means that the protein was enriched with, or labelled near, the bait; the list need not be complete. Tags and fused reporters may be left off the sequences shown.

For the assay, the target named is T1, FLAG-BirA*-tagged Dyrk2, wild type (human). Description: proximity labelling; BioID-MS: FLAG-BirA*-tagged bait stably expressed in T-REx HEK293 Flp-In cells, 50 uM biotin for 24 h, RIPA lysate on Strep-Tactin beads, on-bead digest; SAINTexpress score = 1 against BirA*-GFP and no-biotin controls; mutants compared with wild type by bait-normalised LFQ MS1 intensities.
Turning to B1, the binding result is reported as “binds”.

Regarding B2, the binding result is listed as “binds”.

On to B3, for which the binding entry is “binds”.

Take B4: the binding result was “binds”.

Values taken from publication PMC7366679.
